Taken from: PubChem BioAssay AID1508588 (Peter MacCallum Cancer Centre, 2020)
Purpose: 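Genome-wide search for knock-downs that heighten vemurafenib action in melanoma cells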 (primary screen). Cell system: human WM266.4 melanoma cells (BRAF V600 mutant). Reagent: siRNA pool against human genes, 40 nM. Duration: 96 h from transfection to read-out. Conditions: vemurafenib 300 nM (about IC25), added 48 h after transfection, for 48 h; comparison arm got DMSO vehicle only. Read-out: 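Cell gain (DAPI nuclei at end minus before drug, mean of two replicates) and medium lactate by absorbance per cell, both as ratio to non-targeting siRNA, also grouped into fold-change classes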. Direction: cell gain with vemurafenib: higher = more cell gain than with non-targeting siRNA; lactate per cell with vemurafenib: higher = more lactate made per cell. Rule for the call: 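a knock-down counts as enhancing when its fold-change classes with vehicle and with vemurafenib, taken together, show a stronger drug effect on cell gain or lactate per cell; exact class pairs not stated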. Calls: active = enhances vemurafenib effect; inactive = no enhancement seen.
This is an unselected part of about 18,000 deposited reagents. 790 of them (4.4%) were called active. 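Calls rest on a combination of fold-change classes in drug and vehicle arms, not all shown here.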 Entries without a mark were called inactive. The numbers tell different reagents against one gene apart.

| gene symbol | reagent no. | cell gain with vemurafenib | lactate per cell with vemurafenib |
| --- | --- | --- | --- |
| ITIH4 (inter-alpha-trypsin inhibitor heavy chain 4) | 1 | 0.78 | 0.52 |
| CCDC80 (coiled-coil domain containing 80) | 1 | 1.15 | 0.62 |
| MSRB3 (methionine sulfoxide reductase B3) | 1 | 0.12 | 1.71 |
| ZNF721 (zinc finger protein 721) | 1 | 0.69 | 1.05 |
| SLC5A10 | 1 | 0.32 | 1.34 |
| CISD2 (CDGSH iron sulfur domain 2) | 1 | 1.07 | 0.5 |
| SHPK (sedoheptulokinase) | 1 | 0.81 | 0.76 |
| CEP104 (centrosomal protein 104) | 1 | 0.6 | 1.25 |
| MRPL38 (mitochondrial ribosomal protein L38) | 1 | 0.48 | 0.87 |
| PARD3B (par-3 family cell polarity regulator beta) | 1 | 1.32 | 0.72 |
| RALY (RALY heterogeneous nuclear ribonucleoprotein) | 1 | 0.09 | 3.1 |
| FAM222B (family with sequence similarity 222 member B) | 1 | 0.21 | 2.75 |
| FAM149A (family with sequence similarity 149 member A) | 1 | 0.81 | 1.63 |
| TCTN3 (tectonic family member 3) | 1 | 0.62 | 0.86 |
| VIPR1 (vasoactive intestinal peptide receptor 1) | 1 | 0.32 | 1.92 |
| MLH3 (mutL homolog 3) | 1 | 1.01 | 1.06 |
| PIGF (phosphatidylinositol glycan anchor biosynthesis class F) | 1 | 0.71 | 0.88 |
| PLA2G10 (phospholipase A2 group X) | 1 | 0.45 | 1.43 |
| NPFFR2 (neuropeptide FF receptor 2) | 1 | 0.64 | 0.78 |
| TFCP2L1 (transcription factor CP2 like 1) | 1 | 0.44 | 1.06 |
| KLHL18 (kelch like family member 18) | 1 | 1.11 | 0.7 |
| P2RY6 (pyrimidinergic receptor P2Y6) | 1 | 0.83 | 0.46 |
| DCLRE1A (DNA cross-link repair 1A) | 1 | 0.45 | 1.52 |
| FGF17 (fibroblast growth factor 17) | 1 | 1.1 | 0.64 |
| PTCH2 (patched 2) | 1 | 0.43 | 0.55 |
| TMEM156 (transmembrane protein 156) | 1 | 0.46 | 0.62 |
| INSR (insulin receptor) | 1 | 0.31 | 1.6 |
| HNRNPA1 (heterogeneous nuclear ribonucleoprotein A1) | 1 | 1.38 | 0.56 |
| PXYLP1 (2-phosphoxylose phosphatase 1) | 1 | 0.69 | 1.02 |
| EPB42 (erythrocyte membrane protein band 4.2) | 1 | 0.89 | 0.97 |
| SLC25A35 | 1 | 0.96 (active) | 0.15 |
| TMTC2 (transmembrane O-mannosyltransferase targeting cadherins 2) | 1 | 0.01 | 0.55 |
| ATP11B (ATPase phospholipid transporting 11B (putative)) | 1 | 0.62 | 0.59 |
| REM1 (RRAD and GEM like GTPase 1) | 1 | 0.63 | 1.51 |
| PPIE (peptidylprolyl isomerase E) | 1 | 0.95 | 1.36 |
| NECAP1 (NECAP endocytosis associated 1) | 1 | 0.72 | 1.16 |
| PLAAT3 (phospholipase A and acyltransferase 3) | 1 | 0.07 | 1.1 |
| NSG1 (neuronal vesicle trafficking associated 1) | 1 | 0.51 | 1.1 |
| UNC13B (unc-13 homolog B) | 1 | 0.85 | 1.15 |
| CLIC4 (CLIC family member 4) | 1 | 0.39 | 1.2 |
| ACADL (acyl-CoA dehydrogenase long chain) | 1 | 0.34 | 2.58 |
| SLC17A6 | 1 | 0.84 | 0.54 |
| SHANK1 (SH3 and multiple ankyrin repeat domains 1) | 1 | 0.48 | 1.56 |
| SLC17A7 | 1 | 0.28 | 0.56 |
| NUDT22 (nudix hydrolase 22) | 1 | 0.56 | 0.98 |
| GFOD2 (Gfo/Idh/MocA-like oxidoreductase domain containing 2) | 1 | 0.48 | 1.57 |
| CSPG5 (chondroitin sulfate proteoglycan 5) | 1 | 0.46 | 0.25 |
| CLK2 (CDC like kinase 2) | 1 | 0.49 | 0.73 |
| CHERP (calcium homeostasis endoplasmic reticulum protein) | 1 | -0.01 | 0.34 |
| SIRPG (signal regulatory protein gamma) | 1 | 0.57 | 1.8 |
| DNAJC6 (DnaJ heat shock protein family (Hsp40) member C6) | 1 | 0.23 | 1.57 |
| RBM10 (RNA binding motif protein 10) | 1 | 0.19 (active) | 0.14 |
| CNTROB | 1 | 0.24 | 0.7 |
| SLAMF1 (signaling lymphocytic activation molecule family member 1) | 1 | 0.72 | 0.98 |
| ABCA3 (ATP binding cassette subfamily A member 3) | 1 | 0.27 | 1.12 |
| SNX2 (sorting nexin 2) | 1 | 0.89 | 0.32 |
| SPINK5 (serine peptidase inhibitor Kazal type 5) | 1 | 0.28 | 1.95 |
| IFNW1 (interferon omega 1) | 1 | 0.66 | 0.68 |
| CNOT10 (CCR4-NOT transcription complex subunit 10) | 1 | 0.6 | 0.54 |
| NFYB (nuclear transcription factor Y subunit beta) | 1 | 0.76 | 1.46 |
| MORN5 (MORN repeat containing 5) | 1 | 0.32 | 1.07 |
| TUBA8 (tubulin alpha 8) | 1 | 1.13 | 0.59 |
| LSM3 | 1 | 0.62 | 1.34 |
| SLC5A7 | 1 | 0.47 | 0.67 |
| GLRA3 (glycine receptor alpha 3) | 1 | 0.51 | 0.61 |
| SOS1 (SOS Ras/Rac guanine nucleotide exchange factor 1) | 1 | 0.39 | 1.33 |
| GPR108 (G protein-coupled receptor 108) | 1 | 0.57 | 0.68 |
| ARHGEF3 (Rho guanine nucleotide exchange factor 3) | 1 | 0.94 | 0.42 |
| MMAB (metabolism of cobalamin associated B) | 1 | 0.62 | 0.56 |
| RIPPLY2 (ripply transcriptional repressor 2) | 1 | 0.44 | 0.77 |
| DTX2 (deltex E3 ubiquitin ligase 2) | 1 | -0.01 | 1.25 |
| FZD9 (frizzled class receptor 9) | 1 | 0.27 | 2.9 |
| MGAT4C (MGAT4 family member C) | 1 | 1.16 | 0.91 |
| ARHGEF6 (Rac/Cdc42 guanine nucleotide exchange factor 6) | 1 | 0.73 | 0.86 |
| SIX5 (SIX homeobox 5) | 1 | 0.35 | 0.39 |
| DCTN4 (dynactin subunit 4) | 1 | 0.79 | 1 |
| PGBD2 (piggyBac transposable element derived 2) | 1 | 0.15 | 0.83 |
| LGALS13 (galectin 13) | 1 | 0.59 | 1.5 |
| OXLD1 (oxidoreductase like domain containing 1) | 1 | 0.62 | 0.76 |
| AGTR2 (angiotensin II receptor type 2) | 1 | 0.64 | 0.25 |
| CLMB (calcimembrin) | 1 | 0.63 | 0.67 |
| SPINK14 (serine peptidase inhibitor Kazal type 14 (putative)) | 1 | 0.91 | 0.52 |
| TNKS2 (tankyrase 2) | 1 | 0.9 | 0.7 |
| S1PR3 (sphingosine-1-phosphate receptor 3) | 1 | 0.75 | 1.09 |
| S1PR3 (sphingosine-1-phosphate receptor 3) | 2 | 0.53 | 0.68 |

Records listed so far called active:
| gene symbol | reagent no. | cell gain with vemurafenib | lactate per cell with vemurafenib |
| --- | --- | --- | --- |
| SLC25A35 | 1 | 0.96 (active) | 0.15 |
| RBM10 (RNA binding motif protein 10) | 1 | 0.19 (active) | 0.14 |
